Data as given in PubChem BioAssay AID743121 (NCATS, 2013).

Screen: 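Genes whose silencing strengthens cell killing by camptothecin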 (primary screen)
Cells: MDA-MB-231 cells, a human breast cancer line
Knock-down reagent: single siRNA against human genes, 20 nM siRNA (0.8 pmol per well)
Time to read-out: 120 h (drug added 48 h after transfection, read 72 h later)
Challenge: camptothecin 20 nM (about EC30) for 72 h; vehicle 0.1% DMSO in parallel plates
Detection: 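Cell viability by ATP luminescence (CellTiter-Glo) as % of non-targeting siRNA wells, and the log2 ratio of viability without drug over viability with camptothecin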
Reading the numbers: log2 vehicle/camptothecin viability: higher = stronger sensitisation to camptothecin
Call rule: 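Each gene scored by redundant siRNA activity (RSA) over its individual siRNA ratios; a gene is called active at p < 0.001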
The whole screen tested about 26,000 reagents; shown is an unselected part. 167 of them (0.63%) were called active. 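Calls are per gene from RSA p-values that are not deposited; an individual active-marked siRNA can sensitise only weakly.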 Unmarked entries are inactive. Not all columns of the deposit are shown.

log2 vehicle/camptothecin viability, by gene and reagent
NLRP1 (NLR family pyrin domain containing 1): SID164443970 -0.104; SID164443971 0.304; SID164443972 -0.145; SID164443974 -0.332
MLH3 (mutL homolog 3): SID164462009 -0.0355; SID164462010 -0.0247; SID164462011 -0.32
TNFRSF13B (TNF receptor superfamily member 13B): SID164448326 -0.411; SID164448327 -0.11; SID164448328 -0.232; SID164448329 -0.159
INSL3 (insulin like 3): SID164371709 -0.32; SID164371710 -0.113; SID164371711 0.34
MED16 (mediator complex subunit 16): SID164408175 0.696; SID164408177 0.211; SID164408179 -0.239
AMMECR1 (AMMECR nuclear protein 1): SID164407639 0.388; SID164407646 0.0837; SID164407647 0.451
EEF1A1 (eukaryotic translation elongation factor 1 alpha 1): SID164362671 -0.176; SID164362674 -0.156; SID164362675 -0.264; SID164362677 -0.27
RNF24 (ring finger protein 24): SID164416484 -0.351; SID164416485 -0.175; SID164416486 -0.278; SID164416487 -0.336
YWHAG: SID164394317 -0.131; SID164394318 -0.186; SID164394319 0.0684; SID164394321 -0.503
AURKB (aurora kinase B): SID164402432 -0.283; SID164402434 -0.545; SID164402435 -0.354; SID164402436 0.554
PLSCR1 (phospholipid scramblase 1): SID164381285 -0.147; SID164381288 -0.272; SID164381290 -0.776; SID164381291 0.00354
RAB6A (RAB6A, member RAS oncogene family): SID164384377 -0.611; SID164384379 0.393; SID164384380 -0.59; SID164384382 -0.291
KIF21B (kinesin family member 21B): SID164445246 -0.231; SID164445248 -0.33; SID164445249 -0.0504; SID164445252 0.189
METTL8 (methyltransferase 8, tRNA N3-cytidine): SID164533590 -0.241; SID164533592 0.382; SID164533593 1.04
TXNDC9 (thioredoxin domain containing 9): SID164409305 -0.398; SID164409307 -0.2; SID164409308 -0.0932; SID164409309 -0.0376; SID174315930 -0.0768
CCL20 (C-C motif chemokine ligand 20): SID164387363 -0.115; SID164387364 -0.178; SID164387367 -0.133; SID164387368 -0.237
RPS6KA6 (ribosomal protein S6 kinase A6): SID164463612 -0.134; SID164463614 1.42; SID164463615 -0.137; SID164463617 -0.392
DUSP22 (dual specificity phosphatase 22): SID164491880 0.0122; SID164491881 -0.264; SID164491883 -0.024; SID174316060 0.0626

A run of entries taken from the entries so far, for reference:
log2 vehicle/camptothecin viability, by gene and reagent
CCL20 (C-C motif chemokine ligand 20): SID164387364 -0.178; SID164387367 -0.133; SID164387368 -0.237
RPS6KA6 (ribosomal protein S6 kinase A6): SID164463612 -0.134; SID164463614 1.42; SID164463615 -0.137; SID164463617 -0.392
